The values that follow come from patent publication US20230174581A1, “PROCESSES AND AGENTS FOR GLAUCOMA” (AUFBAU MEDICAL INNOVATIONS LIMITED, priority 2020, published 2023).

This experiment is described as follows: Dose-response of IOP reduction in bovine vitreous humor (BVH) glaucoma model, microfluidic chip device. To be noted: 12.5% BVH, incubated at 37° C. for 1 hour; 7 ul injected; read-out: EC50 for treatment of glaucoma in a bovine vitreous model (IOP reduction). As to the method: Bovine vitreous after homogenization was used to model human disease because it mimicked elevated IOP in humans. […] Once it was added to BVH, the final water concentration was 0.5%. […] Once added to BVH, the final DMSO concentration was 0.5%. […] The pellet was resuspended with PBS and concentrated by 2.5X fold. For treatment of BVH with compound, 25 ul of enriched BVH was added to 25 ul of Compound and incubated for 1 hour in a thermocycler at 37° C., then 5 ul of 5 mM CFSE was added, and the sample incubated in a thermocycler at 37° C. for 30 minutes. EC50 was estimated by plotting the logarithmic functions of the micromolar concentration of the drug in the x axis against the percent of maximal response in the y axis. The maximal response was taken as the value of the response for the highest drug concentration. The response was calculated by taking the absolute difference between the control and test value for each concentration. The compound colistin sulfate was tested in bovine vitreous humor (BVH) glaucoma model in a microfluidic chip device. […] The test compound-BVH solution was introduced into the reservoir of the microfluidic chip device and flow rate and pressure change were recorded. […] The response was calculated by taking the absolute difference between the control and test value for each concentration.

What is called EC50 is the concentration at which the effect is half-maximal. With `CCCCCCCCCCCCCCCC[n+]1ccccc1` [cetylpyridinium chloride, 1-hexadecylpyridin-1-ium], the EC50 is 0.89 nM.
